Source: PubChem BioAssay AID743454 (Peter MacCallum Cancer Centre, 2014)

- Test: 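Genes whose loss kills vorinostat-resistant colon cancer cells under vorinostat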 (primary screen)
- Cells: human HCT116-VR colon cancer cells, selected for vorinostat resistance
- Knock-down reagent: siRNA pool against human genes, 40 nM siRNA pool
- Time to read-out: vorinostat for 24 h, read-out about 72 h after transfection
- Challenge: vorinostat at 2.5 µM final
- Read-out: 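Two measures, CellTiter-Fluor viability and luminescent caspase 3/7 activity, each as fold change against same-plate mock wells, mean of duplicates, then screen-wide robust z-score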
- Reading the numbers: viability robust z-score: higher = more viable cells than screen typical; caspase robust z-score: higher = more caspase 3/7 activity than screen typical
- Call rule: 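Hits are knock-downs in viability class RV1/RV2 or caspase class CA1/CA2, excluding ones that killed cells in the no-drug cell-count arm; hits then retested with single siRNAs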
The deposit covers about 18,000 reagents; this is a random part of them. In the full data, 450 (2.5%) got an active call. 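Single biological run; no consistent viability z cut-off exists, so the class columns, not z-scores, define the calls.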 No sequences are given here.

For IPO11 (GeneID 51194) [SID134319442], the values are viability hit class no change; caspase hit class no change; viability robust z-score 1.53; caspase robust z-score -0.08; inactive.
After knock-down of ZNF490 (GeneID 57474) [SID134318132] the results were viability hit class RV2 (reduced viability); caspase hit class no change; viability robust z-score -4.27; caspase robust z-score 1.75; active.
CFH (GeneID 3075) [SID152156458] gave viability hit class no change; caspase hit class no change; viability robust z-score 1.68; caspase robust z-score -0.06; inactive.
Silencing of IRF5 (GeneID 3663) [SID134316027] resulted in: viability hit class no change; caspase hit class no change; viability robust z-score 0.6; caspase robust z-score 0.7; inactive.
After knock-down of TMEM120B (GeneID 144404) [SID152153217], the record shows viability hit class no change; caspase hit class no change; viability robust z-score 0.4; caspase robust z-score -0.3; inactive.
Depletion of HABP2 (GeneID 3026) [SID134311320] gave: viability hit class no change; caspase hit class no change; viability robust z-score -0.08; caspase robust z-score -0.26; inactive.
Silencing of USP30 (GeneID 84749) [SID135624167] gave: viability hit class no change; caspase hit class no change; viability robust z-score 0.34; caspase robust z-score 0.6; inactive.
After knock-down of ADCY10 (GeneID 55811) [SID134311747] the results were viability hit class no change; caspase hit class no change; viability robust z-score 0.22; caspase robust z-score -0.58; inactive.
MORN5 (GeneID 254956) [SID135625046] scored viability hit class no change; caspase hit class no change; viability robust z-score -0.36; caspase robust z-score -0.94; inactive.
With knock-down of MTMR14 (GeneID 64419) [SID152154236], the screen gave viability hit class no change; caspase hit class no change; viability robust z-score -0.4; caspase robust z-score 2.79; inactive.
For PPIG (GeneID 9360) [SID134313173] the deposit lists viability hit class no change; caspase hit class no change; viability robust z-score -0.31; caspase robust z-score -0.16; inactive.
With knock-down of RPL31 (GeneID 6160) [SID152153058], the record shows viability hit class no change; caspase hit class no change; viability robust z-score -4.33; caspase robust z-score -0.82; inactive.
Knock-down of ZYX (GeneID 7791) [SID152155015] resulted in: viability hit class no change; caspase hit class no change; viability robust z-score 0.65; caspase robust z-score -0.34; inactive.
Knock-down of PDCD1LG2 (GeneID 80380) [SID134322414] gave: viability hit class no change; caspase hit class no change; viability robust z-score -0.38; caspase robust z-score 0.17; inactive.
After knock-down of PNPLA4 (GeneID 8228) [SID152151183], the record shows viability hit class no change; caspase hit class no change; viability robust z-score 0.72; caspase robust z-score -0.72; inactive.
TNFRSF1A (GeneID 7132) [SID134310799] gave viability hit class no change; caspase hit class no change; viability robust z-score 0.72; caspase robust z-score 1.52; inactive.
MAT2A (GeneID 4144) [SID135621654] gave viability hit class RV2 (reduced viability); caspase hit class no change; viability robust z-score -3.48; caspase robust z-score 0.38; active.
Silencing of CTTNBP2 (GeneID 83992) [SID152156443] gave: viability hit class no change; caspase hit class no change; viability robust z-score 1.38; caspase robust z-score 0.06; inactive.
Depletion of LTBP2 (GeneID 4053) [SID134315439] came out at: viability hit class no change; caspase hit class no change; viability robust z-score -0.35; caspase robust z-score -0.5; inactive.
Against PDE11A (GeneID 50940) [SID135621427], the values are viability hit class no change; caspase hit class no change; viability robust z-score -0.1; caspase robust z-score -0.08; inactive.
For ARHGAP42 (GeneID 143872) [SID134317757] the deposit lists viability hit class no change; caspase hit class no change; viability robust z-score -0.78; caspase robust z-score 0.64; inactive.
RPL28 (GeneID 6158) [SID134315503] showed viability hit class no change; caspase hit class no change; viability robust z-score -1.72; caspase robust z-score -0.48; inactive.
SLC16A1 (GeneID 6566) [SID152155314] showed viability hit class no change; caspase hit class no change; viability robust z-score 0.01; caspase robust z-score -0.79; inactive.
For SPIDR (GeneID 23514) [SID152151697] the deposit lists viability hit class no change; caspase hit class no change; viability robust z-score 0.17; caspase robust z-score 2.13; inactive.
After knock-down of BPGM (GeneID 669) [SID152155417], the screen gave viability hit class no change; caspase hit class no change; viability robust z-score 0.96; caspase robust z-score 0.62; inactive.
For HTRA1 (GeneID 5654) [SID152153730] the deposit lists viability hit class no change; caspase hit class no change; viability robust z-score -3.33; caspase robust z-score 1.62; inactive.
For DIP2A (GeneID 23181) [SID152156331], the entry reads viability hit class no change; caspase hit class no change; viability robust z-score 1.24; caspase robust z-score 2.5; inactive.
